Results taken from PubChem BioAssay AID330 (DTP/NCI, 2004).
The list shows only some results of the screen, not a fair sample: it gathers tests that were run many times, whatever their T/C, doses with no T/C, and many T/C values between a quarter and a half above the control. Other doses and runs of a compound stand elsewhere. T/C: endpoint of the treated group in % of that of the vehicle group. Some entries give survivors of the animals treated and no T/C: the source holds a T/C of zero for them, seemingly a mark for toxic or unscored doses. Some doses without a T/C left all or most animals alive at the check, yet need not have been tolerated: survival well below the control is almost never listed, so the zero probably covers shortened survival too. Survivors were counted at the toxicity check, usually on the fifth day, unless a day is given; later deaths do not show. Schedules are NCI's codes, read here as Q, the interval in days (D) or hours (H), X, the number of doses. Some entries hold several experiments; the results are listed from low to high. For survival time, the PubChem record calls one and a half times the control and up active, and a quarter to a half above the control has no call in these data; cut-offs in other NCI protocols can differ. Some T/C values are followed by the survivors on the day toxicity was checked, most often the fifth; where none is given, no animal had died by that day.

System: P388 leukemia ip, CD2F1 mice, survival T/C
Assay: NCI In Vivo Anticancer Drug Screen. Data for tumor model P388 Leukemia (intraperitoneal) in CD2F1 (CDF1) mice
Settings: T/C endpoint: median survival time, higher T/C = longer survival
[1] = dose: 7.5 mg/kg/injection, schedule: Q01DX005 (ip), vehicle: Klucel (hydroxypropylcellulose) (HPC)
[2] = dose: 15.0 mg/kg/injection, schedule: Q01DX005 (ip), vehicle: Klucel (hydroxypropylcellulose) (HPC)
[3] = dose: 30.0 mg/kg/injection, schedule: Q01DX005 (ip), vehicle: Klucel (hydroxypropylcellulose) (HPC)
[4] = dose: 60.0 mg/kg/injection, schedule: Q01DX005 (ip), vehicle: Klucel (hydroxypropylcellulose) (HPC)
[5] = dose: 100.0 mg/kg/injection, schedule: Q04DX003 (ip), vehicle: saline with Tween-80
[6] = dose: 200.0 mg/kg/injection, schedule: Q04DX003 (ip), vehicle: saline with Tween-80
[7] = dose: 60.0 mg/kg/injection, schedule: Q01DX005 (ip), vehicle: saline with Tween-80
[8] = dose: 120.0 mg/kg/injection, schedule: Q01DX005 (ip), vehicle: saline with Tween-80
[9] = dose: 240.0 mg/kg/injection, schedule: Q01DX005 (ip), vehicle: saline with Tween-80
[10] = dose: 200.0 mg/kg/injection, schedule: Q04DX003 (ip), vehicle: saline
[11] = dose: 50.0 mg/kg/injection, schedule: Q01DX009 (ip), vehicle: Klucel (hydroxypropylcellulose) (HPC)
[12] = dose: 200.0 mg/kg/injection, schedule: Q01DX005 (ip), vehicle: saline with Tween-80
[13] = dose: 100.0 mg/kg/injection, schedule: Q01DX009 (ip), vehicle: Klucel (hydroxypropylcellulose) (HPC)
[14] = dose: 200.0 mg/kg/injection, schedule: Q01DX009 (ip), vehicle: other
[15] = dose: 200.0 mg/kg/injection, schedule: Q01DX009 (ip), vehicle: Klucel (hydroxypropylcellulose) (HPC)
[16] = dose: 200.0 mg/kg/injection, schedule: Q01DX009 (ip), vehicle: water
[17] = dose: 100.0 mg/kg/injection, schedule: Q01DX009 (ip), vehicle: saline with Tween-80
[18] = dose: 200.0 mg/kg/injection, schedule: Q01DX009 (ip), vehicle: saline with Tween-80
[19] = dose: 400.0 mg/kg/injection, schedule: Q01DX001 (ip), vehicle: saline with Tween-80
[20] = dose: 400.0 mg/kg/injection, schedule: Q04DX003 (ip), vehicle: saline

For `C=C1C(=O)O[C@@H]2/C=C(/CO)C3=CC(=O)[C@@](C)(C[C@@H](OC(=O)/C(C)=C\C)[C@@H]12)O3`, the survivor count [1] was 6 of 6, the survivor count [2] was 1 of 6 and the survivor count [3] was 0 of 6. For the same compound, the survivor count [4] was 0 of 6.
With `CCCCCCC(Cn1ccnc1)c1ccccc1Cl` (stereo unspecified) the survivor count [5] was 5 of 6, the survivor count [6] was 0 of 6 and the survivor count (dose: 400.0 mg/kg/injection, schedule: Q04DX003 (ip), vehicle: saline with Tween-80) was 0 of 6.
In the case of `O=C(O)CC1OCC=C2CN3CCC45c6ccccc6NC4C1C2CC35` (stereo unspecified), the survivor count (dose: 3.75 mg/kg/injection, schedule: Q01DX005 (ip), vehicle: Klucel (hydroxypropylcellulose) (HPC)) was 0 of 6, the survivor count [1] was 0 of 6 and the survivor count [2] was 0 of 6. The survivor count [3] was 0 of 6, the survivor count [4] was 0 of 6 and the survivor count [7] was 0 of 6. The survivor count (dose: 120.0 mg/kg/injection, schedule: Q01DX005 (ip), vehicle: Klucel (hydroxypropylcellulose) (HPC)) was 0 of 6, the survivor count [8] was 0 of 6 and the survivor count (dose: 240.0 mg/kg/injection, schedule: Q01DX005 (ip), vehicle: Klucel (hydroxypropylcellulose) (HPC)) was 0 of 6. For the same compound, the survivor count [9] was 0 of 6.
With `C=CCCn1nnc(-c2ccccc2)n1` the T/C [5] was 130 % of control.
With `CN=C(Nc1ccccn1)c1ccc(NC(=O)c2ccc(C(=O)Nc3ccc(C(=NC)Nc4ccccn4)cc3)cc2)cc1` the survivor count (dose: 200.0 mg/kg/injection, schedule: Q01DX005 (ip), vehicle: Klucel (hydroxypropylcellulose) (HPC)) was 1 of 6.
In the case of `CC1(C)N=C(N)N=C(N)N1c1ccc(OCC(=O)N2CCOCC2)cc1`, the survivor count (dose: 150.0 mg/kg/injection, schedule: Q01DX009 (ip), vehicle: saline sonified) was 1 of 6 and the survivor count [10] was 4 of 6.
For `CC1CCC(C(C)C2C(O)CC3C4CCC5CC(N)CCC5(C)C4CCC32C)=NC1` (stereo unspecified) (tested in a mixture with another compound), the survivor count [11] was 0 of 6.
With `COc1cc2c(cc1OC)C1Cc3cc(OC)c(OC)cc3[N+]1(C)CC2` (stereo unspecified) the survivor count [12] was 0 of 6.
In the case of `CCN(CC)C(=O)S(=O)(=O)c1ccccc1`, the survivor count [11] was 0 of 6 and 2 of 4 and the survivor count [13] was 0 of 6.
In the case of `O=CNCc1ccc(S(=O)(=O)F)cc1`, the survivor count [14] was 2 of 6.
For `[N-]=[N+]=Nc1ccc(Nc2c3ccccc3nc3ccccc23)cc1`, the T/C [11] was 127 % of control, the survivor count [13] was 5 of 6 and the survivor count [15] was 0 of 6.
With `CN(C)CCCNc1cc(O)c2c(c1O)C(=O)c1ccccc1C2=O` the survivor count [14] was 6 of 6, the T/C [16] was 130 % of control and the survivor count (dose: 300.0 mg/kg/injection, schedule: Q01DX009 (ip), vehicle: other) was 3 of 6. The survivor count (dose: 400.0 mg/kg/injection, schedule: Q01DX009 (ip), vehicle: water) was 4 of 6.
With `O=C(O)C1CC1.[Ag]` the T/C (dose: 1.56 mg/kg/injection, schedule: Q01DX009 (ip), vehicle: saline with Tween-80) was 135 % of control, the survivor count (dose: 25.0 mg/kg/injection, schedule: Q01DX009 (ip), vehicle: saline with Tween-80) was 0 of 6 and the survivor count (dose: 50.0 mg/kg/injection, schedule: Q01DX009 (ip), vehicle: saline with Tween-80) was 0 of 6. The survivor count [17] was 0 of 6 and the survivor count [18] was 0 of 6.
`CCOC(=O)c1c2c(c[nH]c1=O)CCCC2` was tested, and the survivor count [19] was 0 of 6.
In the case of `CNC(=O)OCc1c(COC(=O)NC)c(-c2ccccc2)n2c1CCC2`, the survivor count [15] was 6 of 6.
In the case of `COCC/C=C\CN(C(C)C)C(C)C`, the survivor count [18] was 0 of 6.
With `CC[C@@]1(O)C[C@H](OC2CC(N(C)C)C(O)C(C)O2)c2c(O)c3c(c(O)c2[C@H]1OC1CC(N(C)C)C(O)C(C)O1)C(=O)c1cccc(O)c1C3=O` (stereo partly specified) the T/C (dose: 0.06 mg/kg/injection, schedule: Q01DX009 (ip), vehicle: other) was 131 % of control, the T/C (dose: 0.13 mg/kg/injection, schedule: Q01DX009 (ip), vehicle: other) was 133 % of control and the survivor count (dose: 0.25 mg/kg/injection, schedule: Q01DX009 (ip), vehicle: other) was 6 of 6. The survivor count (dose: 0.5 mg/kg/injection, schedule: Q01DX009 (ip), vehicle: other) was 4 of 6.
For `[N-]=[N+]=CC(=O)CCC(N)C(=O)O` (stereo unspecified), the T/C (dose: 0.03 mg/kg/injection, schedule: Q01DX009 (ip), vehicle: saline) was 138 % of control, the T/C (dose: 0.08 mg/kg/injection, schedule: Q01DX009 (ip), vehicle: saline) was 133 % of control [5 of 6 alive] and the T/C (dose: 0.3 mg/kg/injection, schedule: Q01DX005 (ip), vehicle: saline) was 136 % of control. The T/C (dose: 0.6 mg/kg/injection, schedule: Q01DX005 (iv), vehicle: saline) was 136 % of control, the survivor count (dose: 0.6 mg/kg/injection, schedule: Q01DX009 (ip), vehicle: saline) was 6 of 6 and the T/C (dose: 1.2 mg/kg/injection, schedule: Q01DX005 (ip), vehicle: saline) was 126 % of control. For the same compound, the T/C (dose: 1.2 mg/kg/injection, schedule: Q01DX005 (iv), vehicle: saline) was 148 % of control and the T/C (dose: 31.2 micrograms/kg/injection, schedule: Q01DX009 (ip), vehicle: saline) was 139 % of control.
`N=C(N)c1ccc(/C=C/c2cc3cc(C(=N)N)ccc3[nH]2)cc1` was tested, and the survivor count (dose: 100.0 mg/kg/injection, schedule: Q04DX003 (ip), vehicle: saline) was 0 of 6, the survivor count [10] was 0 of 6 and the survivor count [20] was 0 of 6.
In the case of `N=C1SCc2ccc3ccccc3c21`, the T/C [18] was 135 % of control.
In the case of `CN(C)CCC(=O)/C=C/c1ccc(Cl)c(Cl)c1`, the survivor count [17] was 4 of 6 and the survivor count [18] was 0 of 6.
With `O=c1c2ccccc2cnn1CO` the survivor count [20] was 3 of 6.
`OC(COc1c2ccccc2nc2ccccc12)CN1CCN(c2ccccc2)CC1` (stereo unspecified) was tested, and the survivor count [12] was 6 of 6.
`CCOC(=O)C(=O)Nc1cccc(NC(=O)C(=O)OCC)n1` was tested, and the survivor count [9] was 4 of 6.
With `CN(C)C(=S)N1C(=O)C2C3CCC(O3)C2C1=O` (stereo unspecified) the survivor count (dose: 15.0 mg/kg/injection, schedule: Q01DX005 (ip), vehicle: saline with Tween-80) was 0 of 6, the survivor count (dose: 30.0 mg/kg/injection, schedule: Q01DX005 (ip), vehicle: saline with Tween-80) was 0 of 6 and the survivor count [7] was 0 of 6. The survivor count [8] was 0 of 6 and the survivor count [9] was 0 of 6.
`NNc1nccnc1Cl` was tested, and the survivor count [19] was 0 of 6.
In the case of `CN(C)c1cc[n+](C=O)cc1`, the survivor count (dose: 60.0 mg/kg/injection, schedule: Q01DX005 (ip), vehicle: saline) was 0 of 6, the survivor count (dose: 120.0 mg/kg/injection, schedule: Q01DX005 (ip), vehicle: saline) was 0 of 6 and the survivor count (dose: 240.0 mg/kg/injection, schedule: Q01DX005 (ip), vehicle: saline) was 0 of 6.
For `NC(=S)N/N=C\c1ccc(/C=N/NC(N)=S)cc1`, the survivor count [6] was 6 of 6.
In the case of `O=[N+]([O-])c1cccnc1S(=O)(=O)c1ncccn1`, the survivor count [11] was 2 of 6, the survivor count [13] was 0 of 6 and the survivor count [15] was 0 of 6.
For `NNS(=O)(=O)CCC(N)C(=O)O` (stereo unspecified), the survivor count [16] was 6 of 6.
